Test [1] has as its target KIDARI (KDR), split Venus fusion for BiFC (A. thaliana) (UniProt Q8GW32). In words: split reporter.
Test [2] has as its target T1, LONG HYPOCOTYL IN FAR-RED 1 (HFR1), GAL4 two-hybrid fusion (A. thaliana) (UniProt Q9FE22).
T1 sequence: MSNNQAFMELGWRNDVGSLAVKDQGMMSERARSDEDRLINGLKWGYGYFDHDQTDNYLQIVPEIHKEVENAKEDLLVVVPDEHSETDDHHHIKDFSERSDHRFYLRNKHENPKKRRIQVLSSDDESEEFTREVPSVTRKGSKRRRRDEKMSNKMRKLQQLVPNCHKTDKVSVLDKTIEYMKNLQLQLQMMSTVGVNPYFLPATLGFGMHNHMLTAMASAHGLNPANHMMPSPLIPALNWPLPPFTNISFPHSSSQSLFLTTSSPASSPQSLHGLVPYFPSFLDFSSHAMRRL
Kind of test: two-hybrid.

By UniProt entry, the sequences of proteins in these tests, tags left out.
UniProt Q8GW32: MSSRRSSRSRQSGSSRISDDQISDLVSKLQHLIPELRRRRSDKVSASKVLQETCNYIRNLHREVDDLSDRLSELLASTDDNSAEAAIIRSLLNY
UniProt Q9M0B9: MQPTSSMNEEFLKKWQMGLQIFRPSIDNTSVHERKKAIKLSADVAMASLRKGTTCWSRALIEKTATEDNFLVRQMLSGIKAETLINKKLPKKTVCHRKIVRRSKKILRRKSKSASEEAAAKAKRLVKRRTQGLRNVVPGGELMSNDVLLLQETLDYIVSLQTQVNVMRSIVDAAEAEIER
UniProt Q9LXR7: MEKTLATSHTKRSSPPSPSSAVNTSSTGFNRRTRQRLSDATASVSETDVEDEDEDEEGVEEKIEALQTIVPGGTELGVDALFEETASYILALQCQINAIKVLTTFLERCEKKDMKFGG

Test [3] deals with T1, LONG HYPOCOTYL IN FAR-RED 1 (HFR1), GAL4 two-hybrid fusion (A. thaliana). Kind of test: two-hybrid. This is another data set of the same source.
The target of test [4] is KIDARI (KDR), GAL4 two-hybrid fusion (A. thaliana) (UniProt Q8GW32). Kind of test: two-hybrid.
Test [5] shares this target. In words: two-hybrid. The source holds these as a separate data set.
Test [6] concerns the target T2, PHYTOCHROME-… FACTOR 7 (PIF7), GAL4 two-hybrid fusion (A. thaliana) (UniProt Q570R7).
T2 sequence: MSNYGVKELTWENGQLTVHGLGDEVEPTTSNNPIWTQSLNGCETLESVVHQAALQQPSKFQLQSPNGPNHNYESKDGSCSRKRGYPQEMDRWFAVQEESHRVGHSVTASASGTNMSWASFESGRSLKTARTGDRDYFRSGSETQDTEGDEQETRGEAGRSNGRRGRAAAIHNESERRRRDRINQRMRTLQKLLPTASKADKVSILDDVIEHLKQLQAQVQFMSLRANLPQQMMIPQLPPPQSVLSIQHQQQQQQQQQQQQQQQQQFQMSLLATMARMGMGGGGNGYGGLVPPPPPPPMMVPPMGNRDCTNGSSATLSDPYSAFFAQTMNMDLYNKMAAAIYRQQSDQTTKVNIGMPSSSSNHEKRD
Kind of test: two-hybrid.

In test [7] the target is KIDARI (KDR), GAL4 two-hybrid fusion (A. thaliana) (UniProt Q8GW32). Kind of test: two-hybrid. The source holds these as a separate data set.
The target in test [8] is T3, PHYTOCHROME RAPIDLY REGULATED 1 (PAR1), GAL4 two-hybrid fusion, full-length CDS (A. thaliana) (UniProt Q9SJH0).
T3 sequence: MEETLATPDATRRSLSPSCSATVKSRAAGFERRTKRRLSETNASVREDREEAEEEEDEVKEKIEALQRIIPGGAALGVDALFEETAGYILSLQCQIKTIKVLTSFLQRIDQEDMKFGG
In words: two-hybrid.

Data on 16 molecules can be found in doi:10.1101/2020.05.07.082735.

Read-outs that look alike come from different tables or passages of the source. No constants are given. Whether binding was seen depends on the method and setting. For some assays here: In cells and extracts the contact can be indirect. Some binding calls cover weakened binding; strength is not graded here. Tags and fused reporters may be left off the sequences shown.

On to “IBH1-LIKE 1 (IBL1), split Venus fusion for BiFC (from UniProt Q9M0B9 1-180)”, for which the binding entry in test [1] was “binds”.
In the case of “KIDARI (KDR), GAL4 two-hybrid fusion (from UniProt Q8GW32 1-94)”, the binding result in test [2] and in test [3] was “no binding” throughout.
Regarding “PHYTOCHROME RAPIDLY REGULATED 2 (PAR2), split Venus fusion for BiFC (from UniProt Q9LXR7 1-118)”, the binding entry in test [1] is “binds”.
Still for that read-out and setting: the entry for “ATBS1-… FACTOR 4 (AIF4), split Venus fusion for BiFC (from UniProt O80482 1-207)” is “binds”.
Consider “ATBS1-… FACTOR 4 (AIF4), GAL4 activation domain fusion (from UniProt O80482 1-207)”, for which the binding entry in test [4] and in test [5] was “binds” each time.
With “PHYTOCHROME RAPIDLY REGULATED 2 (PAR2), GAL4 activation domain fusion, full-length CDS (from UniProt Q9LXR7 1-118)”, the values for the binding entry in test [5] and in test [6] were “binds” and “no binding”, respectively.
With “IBH1-LIKE 1 (IBL1), GAL4 activation domain fusion (from UniProt Q9M0B9 1-180)”, the binding result in test [4] and in test [5] was “binds” throughout.

B1: ATBS1-… FACTOR 2 (AIF2), split Venus fusion for BiFC (protein, UniProt Q9C8Z9 1-221)
chain: MASLISDIEPPTSTTSDLVRRKKRSSASSAASSRSSASSVSGEIHARWRSEKQQRIYSAKLFQALQQVRLNSSASTSSSPTAQKRGKAVREAADRALAVSARGRTLWSRAILANRIKLKFRKQRRPRATMAIPAMTTVVSSSSNRSRKRRVSVLRLNKKSIPDVNRKVRVLGRLVPGCGKQSVPVILEEATDYIQALEMQVRAMNSLVQLLSSYGSAPPPI
Turning to B1, the binding result in test [1] is “binds”.

B2: ATBS1 (ACTIVATION-TAGGED BRI1 SUPPRESSOR 1)-… FACTOR 2 (AIF2), GAL4 activation domain fusion (protein, UniProt Q9C8Z9 1-221)
chain: B1 chain
With B2, the binding result in test [4] and in test [5] was “binds” in each case.

B3: LONG HYPOCOTYL IN FAR-RED 1 (HFR1), GAL4 two-hybrid fusion (protein, UniProt Q9FE22 1-292)
chain: T1 sequence
Regarding B3, the binding entry in test [7] is reported as “no binding”; in test [5], “no binding”; in test [6], “binds”.

B4: LONG HYPOCOTYL IN FAR-RED 1 (HFR1), split Venus fusion for BiFC (protein, UniProt Q9FE22 1-292)
chain: T1 sequence
For the molecule B4, the binding result in test [1] is recorded as “no binding”.

B5: ILI1 BINDING BHLH 1 (IBH1), GAL4 activation domain fusion (protein, UniProt Q9SKX1 1-156)
chain: MASADKLINTDVPEKDVFAFHFLQSLSNLRKQNPFDTPDQKNYRVRKIKKAAYVSMARAAGGSSRLWSRALLRRADKDDNKIVRFSRRKWKISSKRRRSNQRAPVVEEAAERLRNLVPGGGGMETSKLMEETAHYIKCLSMQVKVMQCLVDGLSPK
With B5, the binding entry in test [4] and in test [5] was “binds” in each case.

B6: ILI1 BINDING BHLH 1 (IBH1), split Venus fusion for BiFC (protein, UniProt Q9SKX1 1-156)
chain: B5 chain
On to B6, for which, in test [1], the binding result is on record as “binds”.

B7: PHYTOCHROME-… FACTOR 5 (PIF5), GAL4 activation domain fusion (protein, UniProt Q84LH8 1-444)
chain: MEQVFADWNFEDNFHMSTNKRSIRPEDELVELLWRDGQVVLQSQARREPSVQVQTHKQETLRKPNNIFLDNQETVQKPNYAALDDQETVSWIQYPPDDVIDPFESEFSSHFFSSIDHLGGPEKPRTIEETVKHEAQAMAPPKFRSSVITVGPSHCGSNQSTNIHQATTLPVSMSDRSKNVEERLDTSSGGSSGCSYGRNNKETVSGTSVTIDRKRKHVMDADQESVSQSDIGLTSTDDQTMGNKSSQRSGSTRRSRAAEVHNLSERRRRDRINERMKALQELIPHCSRTDKASILDEAIDYLKSLQMQLQVMWMGSGMAAAAAAAASPMMFPGVQSSPYINQMAMQSQMQLSQFPVMNRSAPQNHPGLVCQNPVQLQLQAQNQILSEQLARYMGGIPQMPPAGNQMQTVQQQPADMLGFGSPAGPQSQLSAPATTDSLHMGKIG
In the case of B7, the binding entry in test [5] was “no binding”; in test [8], “binds”; in test [3], “binds”.

B8: PHYTOCHROME RAPIDLY REGULATED 1 (PAR1), split Venus fusion for BiFC (protein, UniProt Q9SJH0 1-118)
chain: T3 sequence
For the molecule B8, in test [1], the binding result is “binds”.

B9: PHYTOCHROME RAPIDLY REGULATED 1 (PAR1), GAL4 two-hybrid fusion, full-length CDS (protein, UniProt Q9SJH0 1-118)
chain: T3 sequence
Take B9: the binding result in test [5] is reported as “binds”.
